# Data: PubChem BioAssay (NCATS)
# Inconclusive results, whose numbers are uncertain, are shown with a selection of clear calls. For some assays here: Potencies beside an inconclusive call are fits to weak or partial responses and may not hold up. Calls of active or inactive are those of the source. Calls follow the shape of the dose curve; as a rule, active = well fitted cell-killing curve with a large enough effect; inconclusive = small, poorly fitted or top-dose-only effect, or effect the other way; inactive = no such curve, though single readings can be large or run the other way.
# Assays:
# [1] = Quantitative High-Throughput drug screen in 47 multiple myeloma cell lines against the NCATS MIPE library collection: ARD_JJKsccE7 cell viability assay (AID 1918929); settings: ARD myeloma cell line viability, CellTiter-Glo, 48 h; viability: at 45.8 µM (top of the series)
# Method in brief: (§1)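 CellTiter-Glo ATP luminescence gave viability after 48 h compound treatment at 37C of 500 multiple myeloma cells per well. Normalisation used DMSO-only wells as 100% and media-only wells as 0% viability; primary qHTS of approved and investigational drugs.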
# [2] = Quantitative High-Throughput drug screen in 47 multiple myeloma cell lines against the NCATS MIPE library collection: Karpas620_DSMZ cell viability assay (AID 1918959); settings: Karpas620 myeloma viability, CellTiter-Glo ATP luminescence, 48 h; series mostly up to 45.8 µM; also: nearly all actives have a fitted effect of over 30% in size
# Method in brief: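 Steps: seed 500 cells per well; pin-transfer MIPE 4.0 library; incubate 48 h at 37C, 5% CO2, humidified; add CellTiter-Glo, 5 min room temperature; read luminescence.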
# [3] = Quantitative High-Throughput drug screen in 47 multiple myeloma cell lines against the NCATS MIPE library collection: KMM1_JCRB cell viability assay (AID 1918960); settings: KMM1 myeloma viability, CellTiter-Glo ATP luminescence, 48 h; viability (% of DMSO): at 45.8 µM (top of the series); also: nearly all actives have a fitted effect of over 30% in size
# Method in brief: (§2)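 Viability screen: myeloma cells (500/well) incubated 48 h at 37 °C, humidified 5% CO2, with pinned library compounds; CellTiter-Glo added, luminescence read; DMSO wells set 100%, medium-only wells 0%.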
# [4] = Quantitative High-Throughput drug screen in 47 multiple myeloma cell lines against the NCATS MIPE library collection: EJM_DSMZ cell viability assay (AID 1918926; also: nearly all actives have a fitted effect of over 30% in size); settings: EJM myeloma cell viability, CellTiter-Glo ATP, 48 h; series mostly up to 45.8 µM
# Method in brief: as §1
# [5] = Quantitative High-Throughput drug screen in 47 multiple myeloma cell lines against the NCATS MIPE library collection: AMO1_DSMZ cell viability assay (AID 1918927; also: nearly all actives have a fitted effect of over 30% in size); settings: AMO1 myeloma cells viability, CellTiter-Glo ATP luminescence, 48 h; viability, % of DMSO: at 45.8 µM (top of the series)
# Method in brief: as §1
# [6] = Quantitative High-Throughput drug screen in 47 multiple myeloma cell lines against the NCATS MIPE library collection: Delta47_JCRB cell viability assay (AID 1918925; also: nearly all actives have a fitted effect of over 45% in size); settings: Delta47 myeloma viability, CellTiter-Glo ATP, 48 h; viability (% of DMSO): at 45.8 µM (top of the series)
# Method in brief: as §1
# [7] = Quantitative High-Throughput drug screen in 47 multiple myeloma cell lines against the NCATS MIPE library collection: ARP1_JJKsccF8 cell viability assay (AID 1918928; also: nearly all actives have a fitted effect of over 40% in size); settings: ARP1 myeloma cells viability, CellTiter-Glo ATP, 48 h; viability: at 45.8 µM (top of the series)
# Method in brief: as §2
# Potency is read from the fitted curve at half-maximal effect.
smiles,measurement,setting,value
CC(=O)OCC1=C(C(=O)O)N2C(=O)[C@@H](N)[C@@H]2SC1,Potency,[1],"inconclusive: 29600 nM [cytotoxic, single point]"
same,Potency,[2],active: 10500 nM
same,Potency,[3],"inconclusive: 37200 nM [cytotoxic, single point]"
Cc1c(C(=O)Nc2cccc(C(F)(F)F)c2)cc(-c2ccccc2)n1CCCN1CCOCC1,Potency,[4],active: 18700 nM
same,Potency,[1],active: 5900 nM
C[C@@H]1O[C@@H](O[C@@H]2C=C3CC[C@@H]4[C@@H](CC[C@]5(C)[C@H](c6ccc(=O)oc6)CC[C@@]45O)[C@@]3(C)CC2)[C@H](O)[C@H](O)[C@H]1O,Potency,[4],active: 20.9 nM
same,"viability, % of DMSO",[5],inconclusive: 6.81% [cytotoxic]
same,Potency,[1],active: 9.3 nM
same,viability (% of DMSO),[3],inconclusive: 1.67% [cytotoxic]
CC(C)c1cccc(C(C)C)c1O,Potency,[6],inactive
same,Potency,[1],inactive
C[C@@H]1[C@@H](CC(C[C@H]2O[C@@H]3O[C@]4(C)CC[C@@H]5[C@H](C)CC[C@@H]([C@H]2C)[C@@]35OO4)C[S+](=O)([O-])c2ccc(COC(=O)N(C)C)cc2)O[C@@H]2O[C@]3(C)CC[C@H]4[C@H](C)CC[C@@H]1[C@@]24OO3 (stereo not given in full),Potency,[6],active: 235 nM
same,Potency,[7],active: 93.5 nM
same,Potency,[2],active: 41.8 nM
same,Potency,[3],active: 105 nM
CC[C@@H]1[C@@H](C)O[C@@](O)([C@@H](C)[C@H](O)[C@H](C)[C@H]2OC(=O)C=CC=C[C@@H](C)[C@@H]([C@@H](C)[C@@H](O)[C@H](C)[C@@]3(O)C[C@H](O[C@H]4C[C@H](O)[C@H](O)[C@H](C)O4)[C@H](CC)[C@@H](C)O3)OC(=O)C=CC=C[C@@H]2C)C[C@H]1O[C@H]1C[C@H](O)[C@H](O)[C@H](C)O1,Potency,[5],active: 332 nM
Cn1c(CCCC(=O)O)nc2cc(N(CCCl)CCCl)ccc21,Potency,[4],"inconclusive: 37200 nM [cytotoxic, partial curve, poor fit]"
same,Potency,[5],"inconclusive: 37.2 nM [cytotoxic, full curve, poor fit]"
same,Potency,[7],"inconclusive: 37200 nM [cytotoxic, single point]"
same,Potency,[1],inactive

# An excerpt from the list above, as a working copy:
smiles,measurement,setting,value
C[C@@H]1[C@@H](CC(C[C@H]2O[C@@H]3O[C@]4(C)CC[C@@H]5[C@H](C)CC[C@@H]([C@H]2C)[C@@]35OO4)C[S+](=O)([O-])c2ccc(COC(=O)N(C)C)cc2)O[C@@H]2O[C@]3(C)CC[C@H]4[C@H](C)CC[C@@H]1[C@@]24OO3 (stereo not given in full),Potency,[6],active: 235 nM
same,Potency,[7],active: 93.5 nM
